# Measured data: PubChem BioAssay AID652243 (Drosophila RNAi Screening Center, 2013)
# Test: 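Fly regulators of androgen-dependent reporter output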 (primary screen)
# Cell system: Drosophila S2R+ cells
# Reagents: long dsRNA against Drosophila genes
# Duration: 72 h (48 h, then 24 h hormone)
# Conditions: synthetic androgen R1881 at 10 nM for 24 h
# Detection: 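Per-well raw luminescence of the androgen-driven firefly reporter and of the Renilla control, two replicates each, without normalisation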
# Reading the numbers: firefly reporter light: higher = more light from androgen-responsive reporter; Renilla control light: higher = more constitutive control signal (cell number, transfection)
# Active means: 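Hit when the log firefly-to-Renilla ratio dropped or increased by a fixed fold versus the mean of GFP or LacZ controls across duplicate plates; lowering cut given as 1.5 and as 3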
# Meaning of the calls: active = hit: reporter lowered or raised; inactive = no hit
# The deposit covers about 24,000 reagents; this is an unselected part of those with a known target gene and a result. In the full data, 246 (1%) were called active. 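Plates not normalised; calls are printed but the firefly/Renilla ratio behind them is not deposited; fold cut for lowering reported inconsistently.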 The raw values are shown without normalisation. The numbers tell different reagents against one gene apart. Not stated in the record: the amount of reagent.
gene,reagent,"firefly reporter light, replicate 1","firefly reporter light, replicate 2","Renilla control light, replicate 1","Renilla control light, replicate 2",Outcome
18SrRNA-Psi:CR41602,1,7.56e5,7.14e5,2.29e6,2.10e6,inactive
CG7889,1,8.56e5,9.37e5,2.19e6,1.95e6,inactive
CG7889,2,5.08e5,6.32e5,5.48e5,5.33e5,inactive
Pur-alpha,1,1.06e5,99997,1.03e6,1.05e6,inactive
CG12693,1,1.72e5,2.06e5,2.78e6,2.77e6,inactive
CG33303,1,1.83e5,1.91e5,8.83e5,1.54e6,inactive
Dna2,1,1.03e5,1.40e5,9.88e5,1.05e6,inactive
CG15642,1,2.69e5,3.54e5,2.33e6,2.73e6,inactive
CG15642,2,5.58e5,5.90e5,1.43e6,1.49e6,inactive
Grl36a,1,4.50e5,3.63e5,2.08e6,2.60e6,inactive
CG6362,1,71005,61478,1.42e6,1.42e6,inactive
CG6362,2,4.48e5,3.54e5,8.06e5,7.62e5,inactive
CG12517,1,1.63e5,1.48e5,9.05e5,1.09e6,inactive
lbm,1,3.30e5,3.97e5,1.77e6,1.76e6,inactive
Ns3,1,7.15e5,7.22e5,1.82e6,1.56e6,inactive
Ns3,2,3.27e5,2.96e5,7.86e5,7.22e5,inactive
nSyb,1,3.81e5,3.45e5,1.27e6,8.02e5,inactive
nSyb,2,8.32e5,9.56e5,1.08e6,1.38e6,inactive
nSyb,3,3.46e5,3.54e5,7.87e5,7.45e5,inactive
nSyb,4,4.86e5,4.86e5,1.17e6,8.98e5,inactive
DCP2,1,74195,52413,1.07e6,4.60e5,inactive
Tsp42Ek,1,3.73e5,4.45e5,2.04e6,2.91e6,inactive
D2hgdh,1,1.21e5,1.32e5,1.10e6,8.97e5,inactive
D2hgdh,2,3.74e5,4.57e5,5.89e5,6.46e5,inactive
Cdk5,1,1.03e6,1.17e6,2.46e6,3.15e6,inactive
Cdk5,2,,,,,inactive
CG9577,1,6.73e5,7.35e5,1.78e6,1.82e6,inactive
CG9577,2,2.25e5,1.76e5,5.70e5,5.57e5,inactive
CG15212,1,3.09e5,2.15e5,2.05e6,2.29e6,inactive
CG5888,1,1.06e6,9.71e5,1.11e6,1.28e6,inactive
CG5888,2,4.54e5,5.57e5,9.22e5,1.07e6,inactive
Acp76A,1,3.61e5,2.19e5,2.44e6,2.13e6,inactive
Acp76A,2,1.79e6,1.18e6,1.43e6,1.43e6,inactive
Acp76A,3,9.87e5,8.61e5,2.16e6,1.87e6,inactive
Hr4,1,62347,71799,1.17e6,8.17e5,inactive
Hr4,2,9.58e5,1.34e6,1.46e6,2.23e6,inactive
Hr4,3,7.21e5,9.53e5,1.63e6,1.77e6,inactive
Hr4,4,7.52e5,1.06e6,5.03e5,5.91e5,inactive
Hr4,5,7.95e5,3.53e5,3.55e6,1.40e6,inactive
Hr4,6,5.23e5,7.87e5,1.32e6,2.45e6,inactive
Mcm2,1,59727,51548,1.68e6,1.48e6,inactive
Mcm2,2,2.42e5,1.37e5,6.36e5,6.71e5,inactive
Lsd-1,1,96113,1.23e5,5.97e5,7.07e5,inactive
CG17751,1,2.73e5,2.96e5,3.47e6,3.67e6,inactive
CG17751,2,5.30e5,9.31e5,1.43e6,1.50e6,inactive
CG17751,3,8.32e5,7.06e5,9.37e5,9.53e5,inactive
JMJD6,1,41714,30901,2.31e5,3.11e5,inactive
JMJD6,2,2.58e5,2.22e5,4.64e5,4.07e5,inactive
Sc2,1,1.34e6,9.24e5,1.75e6,1.05e6,inactive
Sc2,2,3.30e5,2.47e5,6.93e5,4.59e5,inactive
CG3829,1,9.62e5,6.40e5,2.23e6,1.82e6,inactive
CG33262,1,7.10e5,1.09e6,1.63e6,2.17e6,inactive
Sgf11,1,2.54e5,1.67e5,2.66e6,1.44e6,inactive
Tep5Psi,1,1.55e5,1.39e5,1.37e6,2.17e6,inactive
Tep5Psi,2,1.43e5,2.30e5,1.74e6,2.20e6,inactive
CG31223,1,1.18e5,1.44e5,5.47e5,5.80e5,inactive
CG9988,1,2.71e5,1.97e5,1.29e6,1.30e6,inactive
CG10365,1,1.90e5,1.49e5,2.78e6,1.79e6,inactive
